Construct, isoform or probe ends are uncertain for at least one entry. At least one verdict rests on a figure or table, not on a statement of the authors.
Target: RAD52 wild type (human) (UniProt P43351)
Assay: mass photometry
Conditions: 200 nM DNA, spool-like double ring rare

By UniProt entry, the sequences of proteins in these tests, tags left out. Where a name states a change or a piece, a line headed by the entry shows the natural chain unless it says otherwise.
UniProt P43351: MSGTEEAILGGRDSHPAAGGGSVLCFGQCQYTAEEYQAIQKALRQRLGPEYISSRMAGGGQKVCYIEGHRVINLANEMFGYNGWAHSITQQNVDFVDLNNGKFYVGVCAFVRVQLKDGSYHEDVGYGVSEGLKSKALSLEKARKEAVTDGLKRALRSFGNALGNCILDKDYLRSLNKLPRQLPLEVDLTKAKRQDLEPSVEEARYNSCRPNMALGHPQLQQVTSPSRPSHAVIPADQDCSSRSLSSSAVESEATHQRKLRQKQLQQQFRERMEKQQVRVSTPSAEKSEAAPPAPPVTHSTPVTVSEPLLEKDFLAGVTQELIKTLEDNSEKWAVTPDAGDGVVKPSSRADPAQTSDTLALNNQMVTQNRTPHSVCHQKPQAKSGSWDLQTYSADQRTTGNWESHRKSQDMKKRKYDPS

Sequence: TTTTTTTTTTTTTTTTTTTTTTTTTTTTTTTTTTTTTTTTTTTTT [dT45]
- binding result: binds

Reference: article doi:10.1101/2023.11.14.566657
